Results: US20130252904A1, “COMPOSITIONS AND METHODS FOR TREATING CANCER” (ENDOCYTE, INC., priority 2012, published 2013)
At least one peptide structure holds a part that was inferred or is arguable (an end, a ring closure or a residue).

How the values were obtained:
[1] = system: Folate receptor (FR)-positive human nasopharyngeal KB cells; experiment: Cell growth inhibition study (3H-thymidine incorporation); format: cell-based; settings: 2 h exposure at 37° C., 72 h chase, FIG. 2
subcutaneous KB tumors = experiment: In vivo antitumor experiment, subcutaneous KB tumors in nu/nu mice; settings: nu/nu mice with subcutaneous KB tumors, i.v., 2 μmol/kg, TIW; FIG. 3

CC[C@]1(O)CC2CN(CCc3c([nH]c4ccccc34)[C@@](C(=O)OC)(c3cc4c(cc3OC)N(C)[C@H]3[C@@](O)(C(=O)NNC(=O)OCCSSC[C@H](NC(=O)[C@H](CCC(=O)NC[C@H](O)[C@@H](O)[C@H](O)[C@H](O)CO)NC(=O)C(CCC(=O)O)NC(=O)[C@H](CCC(=O)NC[C@H](O)[C@@H](O)[C@H](O)[C@H](O)CO)NC(=O)C(CCC(=O)O)NC(=O)[C@H](CCC(=O)NC[C@H](O)[C@@H](O)[C@H](O)[C@H](O)CO)NC(=O)C(CCC(=O)O)NC(=O)[C@H](CCC(=O)NC[C@H](O)[C@@H](O)[C@H](O)[C@H](O)CO)NC(=O)CC[C@H](NC(=O)c5ccc(NCc6cnc7nc(N)[nH]c(=O)c7n6)cc5)C(=O)O)C(=O)O)[C@H](O)[C@]5(CC)C=CCN6CC[C@]43[C@@H]65)C2)C1 (stereo partly drawn) [EC0905, Pte-γGlu-(Glu(I-amino-I-deoxy-D-glucitol)-Glu)3-Glu(1-amino-1-deoxy-D-glucitol)-Cys(S-ethyl-3-(4 desacetylvinblastinyl)hydrazinecarboxylate)]
3H-thymidine incorporation relative to untreated controls [1]: inhibited ^3H-thymidine incorporation | tumor growth (tumor volume) (subcutaneous KB tumors): inhibited tumor growth
